Results on four molecules are retold here after PMC7356291.

Chains of the proteins cited; added tags and fusions are not shown.
UniProt P21728: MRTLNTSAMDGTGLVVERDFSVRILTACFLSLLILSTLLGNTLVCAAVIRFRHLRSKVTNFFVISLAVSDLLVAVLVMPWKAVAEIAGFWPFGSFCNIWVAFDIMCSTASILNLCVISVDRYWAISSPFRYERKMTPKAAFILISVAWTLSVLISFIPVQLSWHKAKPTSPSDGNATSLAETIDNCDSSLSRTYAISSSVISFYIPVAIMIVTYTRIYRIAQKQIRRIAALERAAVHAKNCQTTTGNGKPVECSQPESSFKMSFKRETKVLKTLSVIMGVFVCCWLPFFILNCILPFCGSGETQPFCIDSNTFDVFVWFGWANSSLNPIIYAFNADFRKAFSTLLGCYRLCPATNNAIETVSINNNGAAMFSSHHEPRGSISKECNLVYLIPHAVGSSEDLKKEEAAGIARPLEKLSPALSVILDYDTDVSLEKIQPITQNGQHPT

These are yes or no findings as the source states them, for the method shown. Binding seen in cells or lysates may run through a third protein. Some binding calls cover weakened binding; strength is not graded here. For some of these results: Where a sequence is shown, tags or fusion partners need not be part of it.

Holding throughout (assay): FRET or BRET; BRET saturation in HEK-293T cells co-transfected with a constant Rluc donor construct and increasing amounts of the YFP acceptor construct; 48 h after transfection; coelenterazine H; cells in HBSS pH 7.4
Assay [1] concerns the target Rluc-YWHAZ WT (14-3-3ζ wild type fused with Renilla luciferase) (human) (UniProt P63104).
Assay [2] deals with DRD1-Rluc (D(1A) dopamine receptor fusion protein with Rluc) (UniProt P21728).
The target of assay [3] is T1, Rluc-YWHAZ WT (14-3-3ζ wild type fused with Renilla luciferase) (human), P63104.
T1 chain: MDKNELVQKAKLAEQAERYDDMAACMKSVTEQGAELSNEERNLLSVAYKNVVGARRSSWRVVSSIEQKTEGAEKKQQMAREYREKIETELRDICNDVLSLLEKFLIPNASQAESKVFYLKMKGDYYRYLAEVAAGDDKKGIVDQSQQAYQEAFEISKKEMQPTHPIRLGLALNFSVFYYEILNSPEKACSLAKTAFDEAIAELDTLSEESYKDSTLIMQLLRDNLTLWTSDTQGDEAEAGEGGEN
The settings on record: remark: other sources report otherwise.

Assay [4] has as its target mutant 14-3-3σ carrying p.E75del, p.S149L and p.T165S (SFN), fused with Rluc or EYFP (human) (UniProt P31947).

In the case of “DRD1-YFP (D(1A) dopamine receptor fusion protein with YFP) (from UniProt P21728 1-446)”, in assay [1], the binding entry was “no binding”.

Turning to “YWHAE-YFP (14-3-3ε fused with EYFP) (from UniProt P62258 1-255)”, in assay [2], the binding result is listed as “no binding”.

B1: YWHAE-YFP (14-3-3ε fused with EYFP), P62258 1-255 (protein)
chain: MDDREDLVYQAKLAEQAERYDEMVESMKKVAGMDVELTVEERNLLSVAYKNVIGARRASWRIISSIEQKEENKGGEDKLKMIREYRQMVETELKLICCDILDVLDKHLIPAANTGESKVFYYKMKGDYHRYLAEFATGNDRKEAAENSLVAYKAASDIAMTELPPTHPIRLGLALNFSVFYYEILNSPDRACRLAKAAFDDAIAELDTLSEESYKDSTLIMQLLRDNLTLWTSDMQGDGEEQNKEALQDVEDENQ
Regarding B1, in assay [3], the binding result is “binds”.

B2: mutant 14-3-3σ carrying p.E75del, p.S149L and p.T165S (SFN), fused with Rluc or EYFP (protein, UniProt P31947 1-248)
chain: MERASLIQKAKLAEQAERYEDMAAFMKGAVEKGEELSCEERNLLSVAYKNVVGGQRAAWRVLSSIEQKSNEEGSEKGPEVREYREKVETELQGVCDTVLGLLDSHLIKEAGDAESRVFYLKMKGDYYRYLAEVATGDDKKRIIDSARLAYQEAMDISKKEMPPSNPIRLGLALNFSVFHYEIANSPEEAISLAKTTFDEAMADLHTLSEDSYKDSTLIMQLLRDNLTLWTADNAGEEGGEAPQEPQS
Turning to B2, the binding result in assay [4] is “binds”.
